According to the supplement of paper PMC12889115:
The other results are listed elsewhere or left out. These are raw signals, not scaled to a control.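 First-pass screen: polymyxin B was added at a level that permeabilizes the Salmonella outer membrane while sparing the inner membrane. DMSO wells, with and without polymyxin B, defined maximum growth. Because plates differed from one another, each plate's data were ranked separately and the compounds with the lowest OD600 were carried forward as hits.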

Test system: Salmonella enterica serovar Typhimurium SL1344
Assay: bacterial growth OD600 after 18 h with compound and polymyxin B; higher = more bacterial growth (less inhibition)
Conditions: 50 µM, Mueller-Hinton broth

## CC(=O)N1CCCC(Nc2ccc(C)c(C)c2)C1 (stereo not given)
Polymyxin B 1 µg/mL
  bacterial growth OD600: 0.922

## CCOC(=O)N1CCN(C(=O)c2cc(COc3ccc(F)cc3Cl)on2)CC1
Polymyxin B 1 µg/mL
  bacterial growth OD600: 0.877

## Cc1ccc(Oc2ncccc2CNC(=O)c2cnn(C(C)C)c2)cn1
Polymyxin B 1 µg/mL
  bacterial growth OD600: 1.1

## COc1ccccc1CC(=O)N1CCC2(CCCN(CC3CC3)C2)C1 (stereo not given)
Polymyxin B 1 µg/mL
  bacterial growth OD600: 0.746

## C=CCNCC1(O)CCCN(Cc2cccc(F)c2F)C1=O (stereo not given)
Polymyxin B 1 µg/mL
  bacterial growth OD600: 1.01

## Cc1ccccc1N1CCN(C2CCCN(C(=O)CCC(C)C)C2)CC1 (stereo not given)
Polymyxin B 1 µg/mL
  bacterial growth OD600: 1.03

## COc1cccc(CC2(CO)CCN(C/C(Cl)=C/c3ccccc3)CC2)c1
Polymyxin B 0.75 µg/mL
  bacterial growth OD600: 0.833

## Clc1ccc(-c2n[nH]c3c2CN(CC2CC2)CC3)cc1
Polymyxin B 0.75 µg/mL
  bacterial growth OD600: 0.802

## O=C(CC(c1ccccc1)c1cccc(Cl)c1)NCCN1CCCCC1=O (stereo not given)
Polymyxin B 1 µg/mL
  bacterial growth OD600: 1.11

## Cc1nc(N(C)C2CCCCC2)ncc1C(C)NCc1cnc(N(C)C)s1 (stereo not given)
Polymyxin B 0.75 µg/mL
  bacterial growth OD600: 0.681
